# Where “and” joins values, the source holds several entries; their conditions need not be identical. Equal values may be shown once. Where a name gives a salt, the structure may show the parent alone. ± gives the standard deviation of the averaged measurements. Some of the results follow. Baselines shift from plate to plate; read single values as rough.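 Assay uses culture-activated primary human stellate myofibroblasts; lipid droplet recovery indicates inactivation. Measured: proportion of Hoechst-counted cells over a plate-specific Bodipy cutoff, duplicate wells, DMSO and nortriptyline as per-plate negative and positive controls. A hit scores, control-normalized, above the plate's top-tenth-percentile nortriptyline wells or ranks among its three best wells. Final well concentrations not reported.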
# Test system: primary human hepatic stellate cells (donor 1)
# Assay: percent Bodipy-positive cells; higher = more lipid droplet accumulation
# Settings: 48 h
# Protocol: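 Primary lipid accumulation screen in primary human hepatic stellate cell myofibroblasts (donor 1, passage 8) in 384-well plates. 100 nL of library compound was pin-transferred into 30 µL medium in duplicate, and cells were treated for 48 h. The 'Scaled' score combines distance from plate baseline, toxicity and reproducibility penalties, and is normalised to nortriptyline (positive) and DMSO (negative) controls on each plate. A hit is defined as scaled >0.85 or among the top 3 wells per plate.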
# [1] = library stock concentration: 10 mM
# [2] = library stock concentration: 80 uM
# [3] = library stock concentration: 400 uM
# [4] = library stock concentration: 2 mM
# [5] = library stock concentration: 3.33 mM
# [6] = library stock concentration: 1 mM
compound,measurement,setting,value
CCOC(=O)C1(CCCCCCOc2ccc(Cl)cc2)CO1 (stereo not drawn),percent Bodipy-positive cells,[1],17.6 ± 3.8%
CNC(=O)c1cc(Oc2ccc(NC(=O)Nc3cc(C(C)(C)C)nn3-c3ccc4ncccc4c3)c(F)c2)ccn1,percent Bodipy-positive cells,[2],12.1 ± 3.4%
same,percent Bodipy-positive cells,[3],12.4 ± 2.7%
same,percent Bodipy-positive cells,[4],12.4 ± 4.6%
same,percent Bodipy-positive cells,[1],14.4 ± 0.95%
CNC(=O)c1cc(Oc2ccc(NC(=O)Nc3cc(C(C)(C)C)nn3-c3ccc4ncccc4c3)c(F)c2)ccn1 [DCC-2036 (Rebastinib)],percent Bodipy-positive cells,[5],12.6 ± 1.8%
same,percent Bodipy-positive cells,[1],25.1 ± 5.4%
OC[C@H]1O[C@H](O[C@]2(CCl)O[C@H](CCl)[C@@H](O)[C@@H]2O)[C@H](O)[C@@H](O)[C@H]1Cl [Sucralose],percent Bodipy-positive cells,[5],12.9 ± 3.8%
same,percent Bodipy-positive cells,library stock concentration: 5 mM,14.2 ± 5.3%
same,percent Bodipy-positive cells,[1],43 ± 10%
COC(=O)[C@H]1[C@H]2C[C@@H]3c4[nH]c5cc(OC)ccc5c4CCN3C[C@H]2C[C@@H](OC(=O)c2cc(OC)c(OC)c(OC)c2)[C@@H]1OC [Reserpine],percent Bodipy-positive cells,[1],82.9 ± 4.6%
O=C(O)c1cc(=O)cc(C(=O)O)[nH]1 [Chelidamic acid],percent Bodipy-positive cells,[1],40.3 ± 2.4%
CC(C)C[C@H](NC(=O)[C@@H](NC(=O)c1cccc(-c2ccccc2)n1)[C@@H](C)O)B(O)O,percent Bodipy-positive cells,[5],62.9 ± 6%
same,percent Bodipy-positive cells,[1],85.1 ± 0.92%
C[C@]1(O)C[C@@H](c2nc(-c3ccc4ccc(-c5ccccc5)nc4c3)c3c(N)nccn32)C1,percent Bodipy-positive cells,[2],9.22 ± 0.28%
same,percent Bodipy-positive cells,[3],12.7 ± 4.8%
same,percent Bodipy-positive cells,[4],12.4 ± 4%
same,percent Bodipy-positive cells,[1],13.5 ± 6.9%
C[C@]1(O)C[C@@H](c2nc(-c3ccc4ccc(-c5ccccc5)nc4c3)c3c(N)nccn32)C1 [OSI-906 (Linsitinib)],percent Bodipy-positive cells,[5],9.54 ± 2%
same,percent Bodipy-positive cells,[1],24.5 ± 7.4%
C[C@@H]1CCO[C@H]2Cn3cc(C(=O)NCc4ccc(F)cc4F)c(=O)c(O)c3C(=O)N12,percent Bodipy-positive cells,[5],7.4 ± 3.9%
same,percent Bodipy-positive cells,[1],22.5 ± 1.4%
CO[C@H]1/C=C/O[C@@]2(C)Oc3c(C)c(O)c4c(O)c(cc(O)c4c3C2=O)NC(=O)/C(C)=C\C=C\[C@H](C)[C@H](O)[C@@H](C)[C@@H](O)[C@@H](C)[C@H](OC(C)=O)[C@@H]1C [Rifamycin sv],percent Bodipy-positive cells,library stock concentration: 2.9 mM,6.06 ± 0.63%
COc1cc2ncnc(Nc3cccc(Cl)c3)c2cc1OC [Tyrphostin AG 1478],percent Bodipy-positive cells,[1],83.82 ± 0.58%
C(=C\c1ccccc1)/CN1CCN(C(c2ccccc2)c2ccccc2)CC1 [Cinnarizine],percent Bodipy-positive cells,,29 ± 4.2%
same,percent Bodipy-positive cells,[1],66.7 ± 7%
O=C(O)[C@H](O)c1ccccc1 [R-(-)-Mandelic Acid],percent Bodipy-positive cells,[6],7.16 ± 0.91%
CCOC(=O)O[C@]1(C(=O)COC(=O)CC)CC[C@H]2[C@@H]3CCC4=CC(=O)C=C[C@]4(C)[C@H]3[C@@H](O)C[C@@]21C [Prednicarbate],percent Bodipy-positive cells,,8.63 ± 2.1%
"CCCCCC(=O)CC[C@H]1C=CC(=O)[C@@H]1C/C=C\CCCC(=O)O [13,14-dihydro-15-keto Prostaglandin A2]",percent Bodipy-positive cells,[6],10.4 ± 4.8%
O=C(Nc1ccccc1-c1cn2c(CN3CCNCC3)csc2n1)c1cnc2ccccc2n1,percent Bodipy-positive cells,[5],92.1 ± 3.7%
same,percent Bodipy-positive cells,[1],100%
Cc1nc2cc3nc(-c4cccs4)cnc3cc2n1C,percent Bodipy-positive cells,[5],9.79 ± 2.4%
Cc1ccc(C(=O)Nc2cccc(C(F)(F)F)c2)cc1-c1ccc2nc(NCCN3CCOCC3)ncc2c1,percent Bodipy-positive cells,[3],25.7 ± 2.1%
same,percent Bodipy-positive cells,[4],66.7 ± 8.2%
CC(=O)NCCCS(=O)(=O)O,percent Bodipy-positive cells,[1],33.3 ± 7.4%
COc1ccc2c(c1OC)C(=O)O[C@@H]2[C@H]1c2c(cc3c(c2OC)OCO3)CCN1C [Noscapine hydrchloride],percent Bodipy-positive cells,[1],44.5 ± 16%
COc1ccc2c(c1OC)C(=O)O[C@@H]2[C@H]1c2c(cc3c(c2OC)OCO3)CCN1C [Noscapine],percent Bodipy-positive cells,,24.6 ± 11%
COc1ccc2c(c1OC)C(=O)O[C@@H]2[C@H]1c2c(cc3c(c2OC)OCO3)CCN1C [Noscapine hydrochloride],percent Bodipy-positive cells,library stock concentration: 4.4 mM,3.98 ± 0.64%
same,percent Bodipy-positive cells,[1],13.5% and 4.25%
O=C(O)c1cc(/N=N/c2ccc(O)c(C(=O)O)c2)ccc1O,percent Bodipy-positive cells,[1],30.5 ± 1.3%
O=C(O)c1cc(/N=N/c2ccc(O)c(C(=O)O)c2)ccc1O [Olsalazine Sodium],percent Bodipy-positive cells,[5],6.8 ± 0.18%
same,percent Bodipy-positive cells,[1],44.1 ± 4.9%
CCCCCCCCCCCCCCCC(=O)OC(CC(=O)O)C[N+](C)(C)C (racemic) [Palmitoyl-DL-Carnitine chloride],percent Bodipy-positive cells,[1],75.1 ± 5.1%
C/C=C1\C(=O)C[C@H]2[C@@H]3CCC4=CC(=O)CC[C@]4(C)[C@H]3CC[C@]12C [Guggulsterone],percent Bodipy-positive cells,[1],16.3 ± 0.76%
CN(C)CC(=O)Nc1ccc2[nH]c(=O)c3ccccc3c2c1,percent Bodipy-positive cells,[5],9.13% and 25.4%
CC/C=C\C/C=C\C/C=C\CCCCCCCCCC(=O)O [Eicosatrienoic acid (20:3 n-3)],percent Bodipy-positive cells,[6],3.46 ± 0.93%
CN1C2CCC1CC(OC(c1ccccc1)c1ccccc1)C2.CS(=O)(=O)O (stereo not drawn) [Benztropine mesylate],percent Bodipy-positive cells,[1],96.73 ± 0.91%
N#Cc1cc2c(OCC(O)CN3CCN(C(c4ccccc4)c4ccccc4)CC3)cccc2[nH]1 (stereo not drawn),percent Bodipy-positive cells,library stock concentration: 10.7 mM,77.8 ± 1.8%
CC(C)(C)NCC(O)COc1cccc2c1CCC(=O)N2 (stereo not drawn) [Carteolol hydrochloride],percent Bodipy-positive cells,,30.4 ± 7.5%
CC(C)(C)NCC(O)COc1cccc2c1CCC(=O)N2 (stereo not drawn) [Carteolol HCl],percent Bodipy-positive cells,[5],12.3 ± 6.5%
same,percent Bodipy-positive cells,[1],27.4 ± 2.7%
O=C(CO)N1CCC(c2n[nH]c(-c3ccc(Cl)cc3)c2-c2ccncn2)CC1,percent Bodipy-positive cells,[3],17 ± 2.7%
same,percent Bodipy-positive cells,[4],19.7 ± 9.4%
same,percent Bodipy-positive cells,[1],16.3 ± 4%
CNC(=O)c1cc(Oc2ccc(NC(=O)Nc3ccc(Cl)c(C(F)(F)F)c3)c(F)c2)ccn1 [Regorafenib],percent Bodipy-positive cells,[2],8.29 ± 0.14%
same,percent Bodipy-positive cells,[3],18.4 ± 3.3%
same,percent Bodipy-positive cells,[4],10.3 ± 0.32%
same,percent Bodipy-positive cells,[1],11.8 ± 3.2%

# Exported with bars between the fields: part of the list above.
compound | measurement | setting | value
O=C(O)c1cc(=O)cc(C(=O)O)[nH]1 [Chelidamic acid] | percent Bodipy-positive cells | [1] | 40.3 ± 2.4%
CC(C)C[C@H](NC(=O)[C@@H](NC(=O)c1cccc(-c2ccccc2)n1)[C@@H](C)O)B(O)O | percent Bodipy-positive cells | [5] | 62.9 ± 6%
same | percent Bodipy-positive cells | [1] | 85.1 ± 0.92%
C[C@]1(O)C[C@@H](c2nc(-c3ccc4ccc(-c5ccccc5)nc4c3)c3c(N)nccn32)C1 | percent Bodipy-positive cells | [2] | 9.22 ± 0.28%
